Source: PubChem BioAssay AID493246 (Drosophila RNAi Screening Center, 2011)

Test: 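Genome-wide search for dsRNAs that reduce cell number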 (primary screen)
Cells: Drosophila Kc and S2R+ cells
Knock-down reagent: long dsRNA against Drosophila genes
Measurement: 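Cell number per well after knock-down, printed as raw plate values; calls were based on per-plate z-scores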
Reading the numbers: Kc cell number and S2R+ cell number: higher = more cells remaining
Active means: 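Counted as a hit if cell number falls by a z-score of at least 3 within its plate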
The screen tested about 21,000 reagents; shown is a random part of those with a known target gene and a result. Of all reagents, 429 (2%) got an active call. 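Values are raw and not normalised between plates; calls rest on per-plate z-scores that were not deposited.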 Entries without a mark were called inactive. The record does not give: the amount of reagent, the time to read-out.

| Target gene | DRSC id | Kc cell number, rep 1 | Kc cell number, rep 2 | S2R+ cell number, rep 1 | S2R+ cell number, rep 2 |
| --- | --- | --- | --- | --- | --- |
| cwo (clockwork orange) | DRSC17072 | 1.60e6 | 1.62e6 | 9.68e5 | 1.01e6 |
| Vha44 (Vacuolar H[+] ATPase 44kD subunit) | DRSC07572 | 1.57e6 | 1.40e6 | 1.02e6 | 1.06e6 |
| Vha44 (Vacuolar H[+] ATPase 44kD subunit) | DRSC07573 | 1.50e6 | 1.52e6 | 1.11e6 | 1.22e6 |
| Tmlh (Trimethyllysine hydroxylase) | DRSC15563 | 1.37e6 | 1.34e6 | 1.02e6 | 1.15e6 |
| Npc2c (Niemann-Pick type C-2c) | DRSC15523 | 1.59e6 | 1.57e6 | 1.21e6 | 1.28e6 |
| GluRIIA (Glutamate receptor IIA) | DRSC03334 | 1.52e6 | 1.41e6 | 1.11e6 | 1.24e6 |
| CG4546 | DRSC15593 | 1.39e6 | 1.50e6 | 1.08e6 | 1.23e6 |
| sd (scalloped) | DRSC20370 | 1.57e6 | 1.58e6 | 1.13e6 | 1.23e6 |
| Rab5 | DRSC00777 | 1.24e6 | 1.34e6 | 9.48e5 | 9.59e5 |
| VGlut (Vesicular glutamate transporter) | DRSC00733 | 1.34e6 | 1.27e6 | 9.79e5 | 1.14e6 |
| Pex10 (Peroxin 10) | DRSC08599 | 1.39e6 | 1.59e6 | 1.04e6 | 1.19e6 |
| ssx | DRSC18492 | 5.76e5 | – | 6.21e5 | – |
| Ufd1 (Ubiquitin fusion-degradation 1-like) | DRSC10607 | 1.33e6 | 1.41e6 | 1.35e6 | 1.15e6 |
| CG10907 | DRSC09804 | 1.49e6 | 1.43e6 | 1.32e6 | 1.52e6 |
| GstD5 (Glutathione S transferase D5) | DRSC16686 | 1.63e6 | 1.59e6 | 1.34e6 | 1.39e6 |
| Sin1 (SAPK-interacting protein 1) | DRSC05965 | 1.46e6 | 1.50e6 | 1.17e6 | 1.20e6 |
| CG14015 | DRSC02346 | 1.54e6 | 1.39e6 | 1.15e6 | 1.39e6 |
| BckdhB (Branched chain keto acid dehydrogenase E1 subunit beta) | DRSC21183 | 1.36e6 | 1.44e6 | 1.03e6 | 1.08e6 |
| sowi (solwind) | DRSC12558 | 1.52e6 | 1.69e6 | 1.22e6 | 1.29e6 |
| Cep164 (centrosomal protein 164) | DRSC20163 | 1.60e6 | 1.60e6 | 1.12e6 | 1.25e6 |
| t-Grip84 (testis-specific gamma-tubulin ring protein 84) | DRSC10904 | 1.57e6 | 1.51e6 | 1.15e6 | 1.21e6 |

3 entries from above in another layout:
{"Target gene":"Ufd1 (Ubiquitin fusion-degradation 1-like)","DRSC id":"DRSC10607","Kc cell number, rep 1":1.33e6,"Kc cell number, rep 2":1.41e6,"S2R+ cell number, rep 1":1.35e6,"S2R+ cell number, rep 2":1.15e6}
{"Target gene":"CG10907","DRSC id":"DRSC09804","Kc cell number, rep 1":1.49e6,"Kc cell number, rep 2":1.43e6,"S2R+ cell number, rep 1":1.32e6,"S2R+ cell number, rep 2":1.52e6}
{"Target gene":"GstD5 (Glutathione S transferase D5)","DRSC id":"DRSC16686","Kc cell number, rep 1":1.63e6,"Kc cell number, rep 2":1.59e6,"S2R+ cell number, rep 1":1.34e6,"S2R+ cell number, rep 2":1.39e6}

The listing continues.
| Target gene | DRSC id | Kc cell number, rep 1 | Kc cell number, rep 2 | S2R+ cell number, rep 1 | S2R+ cell number, rep 2 |
| --- | --- | --- | --- | --- | --- |
| CG42685 | DRSC01971 | 1.44e6 | 1.66e6 | 1.02e6 | 1.17e6 |
| CG10428 | DRSC02054 | 1.30e6 | 1.42e6 | 1.32e6 | 1.31e6 |
| CG31010 | DRSC14006 | 1.31e6 | 1.46e6 | 1.05e6 | 1.12e6 |
| Spn88Eb (Serpin 88Eb) | DRSC16093 | 1.57e6 | 1.63e6 | 1.23e6 | 1.36e6 |
| NANS (N-acetylneuraminic acid synthase) | DRSC15743 | 1.40e6 | 1.50e6 | 1.23e6 | 1.34e6 |
| Tbcc (Tubulin-binding cofactor C) | DRSC00223 | 1.41e6 | 1.50e6 | 1.06e6 | 1.16e6 |
| CG7220 | DRSC05235 | 1.61e6 | 1.51e6 | 1.05e6 | 1.20e6 |
| CG7220 | DRSC07018 | 1.84e6 | 1.71e6 | 1.44e6 | 1.58e6 |
| CG12725 | DRSC19501 | 1.89e6 | 1.83e6 | 1.15e6 | 1.27e6 |
| Tsf2 (Transferrin 2) | DRSC09751 | 1.47e6 | 1.68e6 | 1.30e6 | 1.19e6 |
| CG14370 | DRSC14832 | 1.37e6 | 1.36e6 | 1.14e6 | 1.23e6 |
| srl (spargel) | DRSC12340 | 1.60e6 | 2.01e6 | 1.29e6 | 1.40e6 |
| zormin | DRSC07969 | 1.61e6 | 1.49e6 | 1.04e6 | 1.18e6 |
| zormin | DRSC08210 | 1.44e6 | 1.28e6 | 9.12e5 | 1.19e6 |
| zormin | DRSC08212 | 1.39e6 | 1.26e6 | 1.01e6 | 1.20e6 |
| zormin | DRSC08213 | 1.32e6 | 1.36e6 | 9.94e5 | 1.18e6 |
| zormin | DRSC08297 | 1.52e6 | 1.19e6 | 1.00e6 | 1.18e6 |
| zormin | DRSC08571 | 1.43e6 | 1.49e6 | 1.01e6 | 1.06e6 |
| Mgat4a | DRSC09326 | 1.39e6 | 1.52e6 | 1.06e6 | 1.23e6 |
| Mgat4a | DRSC11070 | 1.38e6 | 1.31e6 | 1.24e6 | 1.34e6 |
